Results deposited as PubChem BioAssay AID1259308 (NCATS, 2017).
The deposit covers about 59,000 reagents; below is a part drawn at random. Over the whole deposit, about 1,510 (2.6%) are marked active. 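Calls use total luciferase alone and ignore viability, so some active siRNAs may act by altering cell number.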 Further read-outs or replicates are left out here.

Aim: 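Candidate targets for better recombinant protein yield in mammalian cells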 (primary screen)
Cell system: human HEK293 embryonic kidney cells stably expressing firefly luciferase (HEK-CMV-Luc2-Hygro)
Reagent: single siRNA against human genes, 0.8 pmol siRNA per well
Duration: 72 h
Read-out: 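Reporter luminescence and viable-cell signal on separate replicate plates, given as percent of non-targeting control and median/MAD z-scores, plus per-cell luciferase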
Direction: total luciferase, z-score and total luciferase, % of control: higher = more reporter protein produced
Rule for the call: 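Active when the median/MAD z-score for overall luciferase is greater than 3; a gene was taken forward for validation with new siRNAs if at least two of its three siRNAs passed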
Meaning of the calls: active = raised luciferase; inactive = no rise

no.	Gene	PubChem SID	total luciferase, z-score	total luciferase, % of control	activity call
1	ARHGEF12	SID160736115	-1.22	57.7	inactive
2	ARHGEF12	SID160736117	-0.837	65.2	inactive
3	ARHGEF12	SID160736118	-0.606	69.8	inactive
4	KLHL38	SID160764413	-0.463	72.7	inactive
5	KLHL38	SID160764414	-0.226	77.4	inactive
6	KLHL38	SID160764415	0.435	90.5	inactive
7	CALB1	SID160735647	-0.197	78	inactive
8	CALB1	SID160735658	-0.366	74.6	inactive
9	CALB1	SID160735669	-0.466	72.6	inactive
10	GRK6	SID160773791	1.16	105	inactive
11	GRK6	SID160773798	0.161	85.1	inactive
12	GRK6	SID160773803	5.67	195	active
13	NACA	SID160777755	3.19	145	active
14	NACA	SID160777756	0.348	88.8	inactive
15	NACA	SID160777757	0.994	102	inactive
16	RNF31	SID160742871	-0.811	65.8	inactive
17	RNF31	SID160742872	-0.572	70.5	inactive
18	RNF31	SID160742874	-1.08	60.5	inactive
19	FOXC2	SID160723765	2.17	125	inactive
20	FOXC2	SID160730819	0.473	91.3	inactive
21	FOXC2	SID160766164	-1.12	59.6	inactive
22	OR6C76	SID160766487	-0.172	78.5	inactive
23	OR6C76	SID160766489	-0.817	65.6	inactive
24	OR6C76	SID160766490	-0.206	77.8	inactive
25	STK3	SID160717474	-1.33	55.4	inactive
26	STK3	SID160717475	-0.0214	81.5	inactive
27	STK3	SID160717476	2.62	134	inactive
28	ULK4P3	SID160724667	1.27	107	inactive
29	ULK4P3	SID160724668	0.571	93.2	inactive
30	ULK4P3	SID160735157	-0.0362	81.2	inactive
31	ZNF486	SID160753775	0.71	96	inactive
32	ZNF486	SID160753776	-2.48	32.5	inactive
33	ZNF486	SID160753778	-1.5	52	inactive
34	PRSS53	SID160764146	-0.763	66.7	inactive
35	PRSS53	SID160764148	0.0873	83.6	inactive
36	PRSS53	SID160764149	3.6	153	active
37	TAS2R14	SID160739753	0.627	94.4	inactive
38	TAS2R14	SID160739754	-0.223	77.5	inactive
39	TAS2R14	SID160739755	-0.408	73.8	inactive
40	ZNF875	SID160763348	-0.538	71.2	inactive
41	ZNF875	SID160763349	-0.822	65.5	inactive
42	ZNF875	SID160763350	0.702	95.8	inactive
43	SEC22B	SID160722490	-1.84	45.2	inactive
44	SEC22B	SID160722491	0.807	97.9	inactive
45	SEC22B	SID160732203	-0.00508	81.8	inactive
46	SDC2	SID160716510	0.0375	82.6	inactive
47	SDC2	SID160716511	-1.05	61.1	inactive
48	SDC2	SID160716512	1.67	115	inactive
49	COMMD4	SID160733572	1.24	107	inactive
50	COMMD4	SID160742548	-0.811	65.8	inactive
51	COMMD4	SID160742549	2.29	127	inactive
52	PROSER3	SID160758647	-1.47	52.6	inactive
53	PROSER3	SID160758649	-0.109	79.7	inactive
54	PROSER3	SID160758650	0.485	91.5	inactive
55	RYBP	SID160736270	0.72	96.2	inactive
56	RYBP	SID160736271	-2.81	26.1	inactive
57	RYBP	SID160736272	1.92	120	inactive
58	UCKL1	SID160742614	-0.279	76.3	inactive
59	UCKL1	SID160742615	-1.6	50	inactive
60	UCKL1	SID160742616	0.131	84.5	inactive
61	CSE1L	SID160748960	2.12	124	inactive
62	CSE1L	SID160748970	2.63	134	inactive
63	CSE1L	SID160748982	2.11	124	inactive
64	MSC	SID160721794	0.378	89.4	inactive
65	MSC	SID160721795	1.05	103	inactive
66	MSC	SID160721796	-0.436	73.2	inactive
67	IGF2R	SID160775623	2.6	134	inactive
68	IGF2R	SID160775624	0.649	94.8	inactive
69	IGF2R	SID160775625	-1.4	53.9	inactive
70	SNX1	SID160717154	-1.96	42.9	inactive
71	SNX1	SID160717155	-0.157	78.8	inactive
72	SNX1	SID160717156	-1.38	54.4	inactive
73	HSF2BP	SID160729893	0.878	99.4	inactive
74	HSF2BP	SID160729894	-0.1	79.9	inactive
75	HSF2BP	SID160729895	0.862	99	inactive
